Source: US12060400B2, “Peptides for use in immunotherapy against cancers” (Immatics Biotechnologies GmbH, priority 2018, dated 2024)
For part of these data: For expression read-outs the peptide stands for its source gene, whose mRNA was measured; the gene is not named for every peptide.

tested on: source gene exon mRNA in tumor and normal tissue samples; assay: Expression profiling (RNAseq) of genes encoding the peptides, tumor versus normal tissues; design: species or system human; conditions: FIGS. 2A-2Q; RNAseq FPKM, tumor versus normal samples

| Substance | expression profile of source gene, over-expressed in different cancer samples |
| --- | --- |
| SEQ ID No.: 31: peptide found in MMP1 (gene looked up) (KQMQEFFGL; listed as Homo sapiens) | over-expressed |
| SEQ ID No.: 18: peptide found in MMP12 (gene looked up) (KYVDINTFRL; listed as Homo sapiens) | over-expressed |
| SEQ ID No.: 13: peptide found in CHRNA9 (gene looked up) (KYYIATMAL; listed as Homo sapiens) | over-expressed |
| SEQ ID No.: 3: peptide found in TRPM8 (gene looked up) (KFLTHDVLTELF; listed as Homo sapiens) | over-expressed |
| SEQ ID No.: 97: peptide found in OR51E2 (gene looked up) (TQMFFIHAL; listed as Homo sapiens) | over-expressed |
| SEQ ID No.: 28: peptide found in OR51E2 (gene looked up) (FWFDSREISF; listed as Homo sapiens) | over-expressed |

same assay, conditions: tumor types in which the peptide's exon is highly over-expressed (++) vs panel of normal tissues; RNAseq; Table 9a

| Substance | Exon Expression in tumor types vs normal tissue panel: highly over-expressed (++) |
| --- | --- |
| 251: peptide found in CNR2 (gene looked up) (DYLLSWLLF; listed as Homo sapiens) [compound 251] | CLL |
| 219: peptide found in CCR8 (gene looked up) (KVVSGFYYI; listed as Homo sapiens) [compound 219] | NHL |
| 13: peptide found in CHRNA9 (gene looked up) (KYYIATMAL; listed as Homo sapiens) [compound 13] | GBM, HNSCC, SCLC |
| 150: peptide found in MRGPRX4 (gene looked up) (FIPVAWLIF; listed as Homo sapiens) [compound 150] | MEL |
| 128: peptide found in NMUR2 (gene looked up) (AFQNVISSF; listed as Homo sapiens) [compound 128] | GC, PACA |
| 116: peptide found in MMP1 (gene looked up) (TYFFVANKY; listed as Homo sapiens) [compound 116] | HNSCC, NSCLCsquam, OSCAR |
| 57: peptide found in NPSR1 (gene looked up) (RYLQVVLLY; listed as Homo sapiens) [compound 57] | CRC, GBC, GC |
| 165: peptide found in NAT1 (gene looked up) (KDQPQVPCVF; listed as Homo sapiens) [compound 165] | BRCA |
| 185: peptide found in CTLA4 (gene looked up) (LYICKVELM; listed as Homo sapiens) [compound 185] | CLL |
| 211: peptide found in PGR (gene looked up) (MLYFAPDLIL; listed as Homo sapiens) [compound 211] | UEC |

same assay, conditions: tumor types in which the peptide's exon is over-expressed (+) vs panel of normal tissues; RNAseq; Table 9a

| Substance | Exon Expression in tumor types vs normal tissue panel: over-expressed (+) |
| --- | --- |
| 251: peptide found in CNR2 (gene looked up) (DYLLSWLLF; listed as Homo sapiens) [compound 251] | NHL |
| 219: peptide found in CCR8 (gene looked up) (KVVSGFYYI; listed as Homo sapiens) [compound 219] | BRCA, CCC, HNSCC, MEL, NSCLCadeno, NSCLCother, NSCLCsquam, OSCAR, UBC |
| 13: peptide found in CHRNA9 (gene looked up) (KYYIATMAL; listed as Homo sapiens) [compound 13] | MEL, NSCLCadeno, NSCLCsquam, OC, OSCAR, UBC, UEC |
| 150: peptide found in MRGPRX4 (gene looked up) (FIPVAWLIF; listed as Homo sapiens) [compound 150] | HNSCC, UBC |
| 128: peptide found in NMUR2 (gene looked up) (AFQNVISSF; listed as Homo sapiens) [compound 128] | NSCLCsquam, UEC |
| 116: peptide found in MMP1 (gene looked up) (TYFFVANKY; listed as Homo sapiens) [compound 116] | CRC, GC, NSCLCadeno, PACA, UBC |
| 181: peptide found in NMUR2 (gene looked up) (IHGIKFHYF; listed as Homo sapiens) [compound 181] | PACA, UEC |
| 57: peptide found in NPSR1 (gene looked up) (RYLQVVLLY; listed as Homo sapiens) [compound 57] | GBM, PACA |
| 366: peptide found in TGM6 (gene looked up) (RLGEFVLLF; listed as Homo sapiens) [compound 366] | HNSCC, NSCLCsquam |
| 185: peptide found in CTLA4 (gene looked up) (LYICKVELM; listed as Homo sapiens) [compound 185] | NHL |
| 211: peptide found in PGR (gene looked up) (MLYFAPDLIL; listed as Homo sapiens) [compound 211] | BRCA |

same assay, conditions: tumor types in which the peptide's exon is very highly over-expressed (+++) vs panel of normal tissues; RNAseq; Table 9a

| Substance | Exon Expression in tumor types vs normal tissue panel: very highly over-expressed (+++) |
| --- | --- |
| 13: peptide found in CHRNA9 (gene looked up) (KYYIATMAL; listed as Homo sapiens) [compound 13] | NSCLCother |

tested on: HLA molecules of primary tumor and normal tissue samples (cancer entities); assay: Identification and label-free LC-MS quantitation of HLA-presented tumor-associated peptides on tissue samples; design: species or system human; conditions: FIGS. 1A-1J; HLA-A*24 positive normal (N=75) versus tumor samples (N=263), MS signal intensities

| Substance | over-presentation of the peptide in different cancer tissues |
| --- | --- |
| SEQ ID NO.: 86 (SYLPTAERL; listed as Homo sapiens) | over-presentation |
| SEQ ID NO.: 362 (NYMDTDNLMF; listed as Homo sapiens) | over-presentation |
| SEQ ID NO.: 15: peptide found in SLC6A3 (gene looked up) (FMVIAGMPLF; listed as Homo sapiens) | over-presentation |
| SEQ ID NO.: 274: peptide found in PTPRZ1 (gene looked up) (EYSLPVLTF; listed as Homo sapiens) | over-presentation |

same assay, conditions: cancer entities on whose tumor tissue samples the HLA-presented peptide was found (LC-MS); abbreviations in the footnotes of Table 8a

| Substance | Peptide Presentation on cancer entities |
| --- | --- |
| 49 (QYLSIAERAEF; listed as Homo sapiens) [compound 49] | GC, UBC |
| 99 (ASAALTGFTF; listed as Homo sapiens) [compound 99] | OC, PRCA |
| 161 (ILQAPLSVF; listed as Homo sapiens) [compound 161] | CLL, GC, MEL, NSCLCadeno, NSCLCother, NSCLCsquam, OSCAR, PACA, RCC, SCLC |
| 199 (MFQFEHIKW; listed as Homo sapiens) [compound 199] | NSCLCadeno |
| 381 (IYTDITYSF; listed as Homo sapiens) [compound 381] | AML, CCC, GBC, HCC, NHL, NSCLCadeno, NSCLCsquam, OC, OSCAR, RCC |
| 256 (QHAWLPLTI; listed as Homo sapiens) [compound 256] | NHL |
| 130 (RPEKVFVF; listed as Homo sapiens) [compound 130] | NSCLCadeno |
| 377 (SLWREVVTF; listed as Homo sapiens) [compound 377] | OC, RCC |
| 114 (KALMSAFYTF; listed as Homo sapiens) [compound 114] | CCC |
| 194 (EYFLPSLEII; listed as Homo sapiens) [compound 194] | CLL |
| 224 (AYLQFLSVL; listed as Homo sapiens) [compound 224] | NSCLCother |
| 269 (FSFSTSMNEF; listed as Homo sapiens) [compound 269] | PRCA |
| 119 (VWSCEGCKAF; listed as Homo sapiens) [compound 119] | UBC |
| 286 (HHTQLIFVF; listed as Homo sapiens) [compound 286] | GBC, PRCA |
| 179 (MYNMVPFF; listed as Homo sapiens) [compound 179] | NSCLCadeno |
| 188 (SLPGSFIYVF; listed as Homo sapiens) [compound 188] | NSCLCadeno, RCC |
| 261 (IMFCLKNFWW; listed as Homo sapiens) [compound 261] | NSCLCadeno, OC |

| Substance | Peptide Presentation on cancer entities |
| --- | --- |
| 369 (NFYLFPTTF; listed as Homo sapiens) [compound 369] | GC, NSCLCsquam |
| 255 (VYLDEKQHAW; listed as Homo sapiens) [compound 255] | CLL, NHL |
| 192 (CYSFIHLSF; listed as Homo sapiens) [compound 192] | HCC, NHL |
| 83 (VLQGEFFLF; listed as Homo sapiens) [compound 83] | NHL |
| 74 (NYVLVPTMF; listed as Homo sapiens) [compound 74] | CCC, CRC, GBC, GC, HCC, NSCLCadeno, NSCLCsquam, OC, UEC |
| 285 (YFLPGPHYF; listed as Homo sapiens) [compound 285] | RCC |
| 184 (VYVRPRVF; listed as Homo sapiens) [compound 184] | NSCLCadeno |
| 208 (QYLQQQAKL; listed as Homo sapiens) [compound 208] | NSCLCadeno |
| 356 (YSLEHLTQF; listed as Homo sapiens) [compound 356] | OC, UEC |
| 174 (TYGEEMPEEI; listed as Homo sapiens) [compound 174] | PRCA |
| 103 (EMFFSPQVF; listed as Homo sapiens) [compound 103] | CRC, HCC, NSCLCadeno |
| 180 (IYNKTKMAF; listed as Homo sapiens) [compound 180] | SCLC |
| 385 (GYFGNPQKF; listed as Homo sapiens) [compound 385] | BRCA, CCC, CRC, GBC, GC, HCC, HNSCC, MEL, NSCLCadeno, NSCLCother, NSCLCsquam, OC, OSCAR, PACA, PRCA, RCC, SCLC, UBC, UEC |
| 139 (AYAPRGSIYKF; listed as Homo sapiens) [compound 139] | GBC, NSCLCadeno |
| 346 (TYIDFVPYI; listed as Homo sapiens) [compound 346] | GBC, GC, NSCLCadeno, OC, RCC, UEC |
| 332 (VYCSLDKSQF; listed as Homo sapiens) [compound 332] | BRCA, CCC, GBC, GC, MEL |
| 87 (NYTRLVLQF; listed as Homo sapiens) [compound 87] | CCC, GBC, GC, NSCLCsquam, OSCAR, UEC |
